Assay results: PMC12162657
Changes are numbered by the printed parent chain. These are yes or no findings as the source states them, for the method shown. Binding seen in cells or lysates may run through a third protein. Some results given as binding are weak or reduced against the parent protein; the word gives no strength. Tags and fused reporters may be left off the sequences shown.

Protein sequences, listed by entry. Tags and fused reporters are not part of them.
UniProt Q9JM13: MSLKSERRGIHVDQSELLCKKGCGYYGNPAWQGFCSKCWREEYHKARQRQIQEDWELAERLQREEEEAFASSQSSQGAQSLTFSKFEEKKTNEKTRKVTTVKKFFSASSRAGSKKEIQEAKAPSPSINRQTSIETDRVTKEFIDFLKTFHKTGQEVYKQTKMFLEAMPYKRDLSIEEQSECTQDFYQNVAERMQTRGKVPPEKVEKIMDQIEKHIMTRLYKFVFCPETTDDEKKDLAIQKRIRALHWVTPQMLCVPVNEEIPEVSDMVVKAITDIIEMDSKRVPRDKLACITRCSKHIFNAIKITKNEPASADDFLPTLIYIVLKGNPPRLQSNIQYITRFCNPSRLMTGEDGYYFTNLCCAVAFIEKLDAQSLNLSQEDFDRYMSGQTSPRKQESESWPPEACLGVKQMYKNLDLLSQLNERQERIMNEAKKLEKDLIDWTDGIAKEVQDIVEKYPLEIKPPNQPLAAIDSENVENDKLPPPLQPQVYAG

Legend:
GFP-Rab21 T31N (mouse) = target: T1, GFP-Rab21 T31N (mouse) (UniProt P35282); test: co-IP; N2a cells transfected with GFP-fusion proteins, lysed (10 mM Tris-HCl pH 7.5, 150 mM NaCl, 0.5 mM EDTA, 0.2% NP-40); pre-cleared lysate incubated 1 h at 4°C with GFP-Trap_MA magnetic agarose beads; Western blot of immunoprecipitates
T1 sequence: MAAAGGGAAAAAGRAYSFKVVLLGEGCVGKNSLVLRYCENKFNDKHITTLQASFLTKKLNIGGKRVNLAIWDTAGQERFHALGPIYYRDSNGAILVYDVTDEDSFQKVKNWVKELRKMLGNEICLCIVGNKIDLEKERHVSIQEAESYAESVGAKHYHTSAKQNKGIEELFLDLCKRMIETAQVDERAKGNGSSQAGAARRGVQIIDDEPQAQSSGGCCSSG

GFP-Rab21 WT (mouse) = target: T2, GFP-Rab21 WT (mouse) (UniProt P35282); test: as above
T2 sequence: T1 sequence with N31T

binding (GFP-Rab21 T31N (mouse)): binds | binding (GFP-Rab21 WT (mouse)): binds
Substance: Rabex-5 (from UniProt Q9JM13 1-491)
